This is one part of the list. The main result of the screen is listed elsewhere. These columns were measured beside it and carry no call. Compounds called inactive in the main read-out are mostly missing here. Potencies come from curve fits of mixed quality, noted in brackets.
Assay: qHTS Assay for Lipid Storage Modulators in Drosophila S3 Cells;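 on cell number change: cells counted by Cell Tracker Red CMTPX staining in the red channel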
Conditions: BODIPY lipid droplet fluorescence, 18-24 h; for cell number change: measured here: cell count max response, cells fed with added oleic acid
Procedure, shortened: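 Drosophila S3 cells got compounds at several concentrations plus oleic acid (400 uM solution). Laser-scanning cytometry with 488 nm excitation read lipid droplets at 500-530 nm and cells at 575-640 nm. Percent activity was relative to 20 uM Triacsin C.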

[1] = measured here: cell number channel AC50, cells fed with added oleic acid
[2] = measured here: lipid fluorescence (Fed channel) AC50, cells fed with added oleic acid

Structure (SMILES) | cell number change | AC50 [1] | AC50 [2]
CCCCN1C(=O)C(=O)N(CC(=O)c2cc(C)n(C3CC3)c2C)C1=O | 11.4% |  | 
CCn1cc(C(=O)NCc2ccccn2)c(=O)c2cc(S(=O)(=O)N3CCCCC3)ccc21 | -2.38% |  | 
CCOc1ccc(NC(=O)CSC(N)=O)cc1 | 3.35% |  | 
CC(=O)c1ccc(NC(=O)C2CCCN2S(=O)(=O)c2cccc3cccnc23)cc1 (stereo unspecified) | -36.9% | 1.16 µM [falling, full curve] | 1.03 µM [falling, full curve]
COc1ccc(C2C(Oc3ccccc3C)C(=O)N2Cc2ccc(F)cc2)cc1OC (stereo unspecified) | 118% | 20.6 µM [rising, partial curve] | 32.6 µM [rising, single point]
CC1CC(=O)N(CC(=O)Nc2ccc3c(c2)OCO3)c2ccccc2S1 (stereo unspecified) | 38.2% | 1.16 µM [rising, partial curve] | 0.731 µM [rising, full curve]
COc1ccc(C2=NOC(C(=O)N3CCN(C(=O)c4ccco4)CC3)C2)cc1OC (stereo unspecified) | -2.09% |  | 
CC(=O)Oc1ccc(-c2cccc(C(=O)NCCO)c2)cc1 |  | 5.17 µM [falling, partial curve] | 0.13 µM [falling, full curve, poor fit]
O=C(Nc1sc2c(c1C(=O)O)CCCC2)C(=O)N1CCOCC1 |  |  | 29.1 µM [rising, single point]
CCOC(=O)N1CCc2c(sc3c2c(=O)n(Cc2ccccc2)c(=O)n3CC(=O)NCCOC)C1 | 30% |  | 0.013 µM [rising, full curve, poor fit]
O=C(Nc1nnc(-c2cccnc2)o1)c1cccc([N+](=O)[O-])c1 | -12.5% |  | 32.6 µM [falling, single point]
Cc1ccc(NC(=O)c2oc(=O)c3ccccc3c2-c2ccccc2)c(C)c1 |  |  | 1.46 µM [rising, full curve]
COc1cc(C(=O)Nc2ccc3ccccc3c2)cc(OC)c1OC | -3.51% |  | 
O=C(CCNC(=O)OCc1ccccc1)NC1CCCCC1 | -34.8% | 3.26 µM [falling, partial curve, poor fit] | 0.146 µM [falling, full curve, poor fit]
CCCc1ccc(C(=O)NNC(=O)c2ccc(Br)cc2)cc1 | 16% |  | 0.651 µM [rising, full curve]
COc1ccc(C(=O)C(C)N(C(=O)c2ccc(Cl)cc2Cl)N2C(=O)C3C4C=CC(C4)C3C2=O)cc1 (stereo unspecified) | -23.8% |  | 29.1 µM [falling, single point]
CC(=O)O[C@]1(C(C)=O)CC[C@H]2[C@@H]3C=C(Cl)C4=CC(=O)CC[C@]4(C)[C@H]3CC[C@@]21C | -12.2% |  | 
COc1ccc2[nH]c(=O)c(C(c3nnnn3C(C)(C)C)N(Cc3ccco3)CC3CCCO3)cc2c1 (stereo unspecified) | 2.17% | 0.58 µM [falling, single point] | 0.58 µM [falling, single point]
O=C(CSc1nccc(-c2cccs2)n1)Nc1cccc(Cl)c1Cl | -39.4% |  | 6.51 µM [rising, partial curve, poor fit]
CCOC(=O)c1cncc(C#CCOC(=O)Nc2ccc(OC(F)(F)F)cc2)c1 | 5.15% |  | 2.31 µM [rising, single point]
Cc1oc2c(C)c3oc(=O)c4c(c3cc2c1C)CCC4 | 9.84% |  | 

Sorted by heavy-atom count (ascending): part of the list above.
Structure (SMILES) | cell number change | AC50 [1] | AC50 [2]
CC1CC(=O)N(CC(=O)Nc2ccc3c(c2)OCO3)c2ccccc2S1 (stereo unspecified) | 38.2% | 1.16 µM [rising, partial curve] | 0.731 µM [rising, full curve]
COc1ccc(C2C(Oc3ccccc3C)C(=O)N2Cc2ccc(F)cc2)cc1OC (stereo unspecified) | 118% | 20.6 µM [rising, partial curve] | 32.6 µM [rising, single point]
COc1ccc(C(=O)C(C)N(C(=O)c2ccc(Cl)cc2Cl)N2C(=O)C3C4C=CC(C4)C3C2=O)cc1 (stereo unspecified) | -23.8% |  | 29.1 µM [falling, single point]

Following part:

Structure (SMILES) | cell number change | AC50 [1] | AC50 [2]
CC(C)c1ccc(NC(=O)CN2C(=O)NC(Cc3c[nH]c4ccccc34)C2=O)cc1 (stereo unspecified) | -7.16% |  | 1.03 µM [rising, partial curve]
CCN(Cc1cc(=O)n2ccsc2n1)Cc1nc2cc(OC)c(OC)cc2c(=O)[nH]1 | 24.8% |  | 29.1 µM [rising, single point]
COc1ccc([C@@H]2[C@@H]3C(=O)N(C(C)(C)C)C(=O)[C@@H]3[C@]3(Cc4ccccc4)C(=O)N(c4ccc(OC)cc4)C(=O)N23)cc1 | 18.6% |  | 2.31 µM [rising, single point]
CC(C)(C)NC(=O)COC(=O)CCC(=O)c1ccc(F)cc1 | -40.2% |  | 
COc1ccccc1CCC(=O)N(C)CC(=O)Nc1ccc(Cl)c(C(F)(F)F)c1 |  |  | 0.58 µM [falling, single point]
O=C(N1CCN(c2ccccc2F)CC1)C1(S(=O)(=O)c2ccc(Cl)cc2)CC1 | -17.5% |  | 
O=C(Nc1ccc(OC(F)(F)F)cc1)Nc1cccc([N+](=O)[O-])c1 | -78.9% | 4.61 µM [falling, full curve] | 3.26 µM [falling, full curve]
CCOc1ccc(NC(=O)C2CSC(c3ccncc3)=N2)cc1 (stereo unspecified) | 11.1% |  | 0.092 µM [rising, full curve, poor fit]
Cc1nn(Cc2ccc(Cl)cc2)c(Cl)c1/C=N/NC(=O)CNc1ccccc1F | -5.07% |  | 
O=C(CNCc1ccccc1Cl)NCc1ccco1 |  |  | 2.59 µM [falling, single point]
CCCCNC(=O)COC(=O)c1cc(C)nc2ccccc12 | -28.2% |  | 0.082 µM [falling, full curve, poor fit]
CC1N(C(=O)N2CCOCC2)CCN1S(=O)(=O)c1ccc(Cl)cc1 (stereo unspecified) | -3.95% |  | 
CCN(CC(=O)Nc1ccc(NC(C)=O)cc1)C(=O)/C=C/c1cn(-c2ccccc2)nc1-c1cccs1 |  | 2.06 µM [rising, partial curve] | 
CCOC(=O)c1cnn(-c2ccccc2)c1NC(=O)CN1CCCCC1 | -7.35% |  | 
CCNC(=S)N/N=C/c1cccc(C)c1 | 0.0804% |  | 2.59 µM [rising, partial curve]
Cc1cccc(C)c1NC(=O)CNC(=O)c1ccc(NS(=O)(=O)c2ccc3[nH]c(=O)[nH]c3c2)cc1 | 102% |  | 
Cc1cccc(Nc2nc(N)c([N+](=O)[O-])c(N3CCCC(C)C3)n2)c1 (stereo unspecified) | -38% | 11.6 µM [falling, partial curve] | 
Cc1cccc(N2C(=O)C3C4C=CC(CC4)C3C2=O)c1 (stereo unspecified) | -6.82% |  | 23.1 µM [rising, single point]
COc1cccc(C2C(C(=O)c3cc4cccc(OC)c4o3)=C(O)C(=O)N2c2cc(C)on2)c1OC (stereo unspecified) |  |  | 6.51 µM [rising, single point]
CCOC(=O)C1=C(C)N(C2CCCCC2)C(=O)C1 | -2.71% |  | 5.17 µM [falling, single point]
O=C(Nc1nnc(SCc2ccccc2F)s1)C1=COCCO1 | -11.9% |  | 29.1 µM [falling, single point]

Structure (SMILES) | cell number change | AC50 [1] | AC50 [2]
CCn1cc(C(=O)N2CCCC2)c(=O)c2cc(S(=O)(=O)N3CC(C)CC(C)C3)ccc21 (stereo unspecified) | 10.9% |  | 0.103 µM [rising, full curve, poor fit]
Cc1ccc(C)c(S(=O)(=O)NCCCN2CCOCC2)c1 | 26.7% |  | 5.8 µM [rising, single point]
COCCSc1nnc(NC(=O)C2CCN(C(=O)c3ccco3)CC2)s1 | -9.21% |  | 5.62 µM [falling, single point]
CCCc1nc(NC2CCCCC2)c(C#N)c2c1COC(C)(C)C2 | 0.678% |  | 18.4 µM [rising, single point]
Cc1cn(S(=O)(=O)c2ccc(Br)c3ccccc23)cn1 | 0.512% | 0.116 µM [falling, full curve, poor fit] | 
COc1ccc(C)cc1NC(=O)CCCN1C(=O)CCC1=O | -107% | 18.4 µM [falling, partial curve] | 
CCN(CC)c1cc(C)c2cc(NC(=O)CNC(C)=O)ccc2n1 | -10.3% |  | 18.4 µM [rising, single point]
O=C(COc1ccc(S(=O)(=O)NCc2ccccc2)cc1Cl)NCc1ccncc1 | -0.427% |  | 9.2 µM [falling, partial curve]
CCc1nc2ccc(C(=O)O)cc2nc1CC | 4.49% |  | 0.00517 µM [falling, full curve, poor fit]
CCC(C)(C)NC(=O)C(c1ccc(OC)cc1)N(CCOC)C(=O)CCC(=O)Nc1nccs1 (stereo unspecified) | -49.6% | 4.11 µM [falling, full curve] | 4.61 µM [falling, full curve]
COC(=O)CSc1nc2ncccc2[nH]1 | -17.1% |  | 20.6 µM [falling, partial curve]
COc1ccc(NC(=O)c2nc(S(=O)(=O)Cc3cccc(C)c3)ncc2Cl)c(OC)c1 | 84.5% | 29.1 µM [rising, single point] | 14.6 µM [falling, partial curve, poor fit]
N=C1S/C(=C\c2ccco2)C(=O)N1c1ccc2c(c1)OCO2 |  |  | 4.11 µM [rising, full curve, poor fit]
COC(=O)c1ccc(N2CCN(C)CC2)c(NC(=O)COc2ccc(C)cc2)c1 | -25.4% |  | 6.51 µM [rising, single point]
COc1ccc(N2CCN(C(=O)c3cccc(NC(=O)c4ccco4)c3)CC2)cc1 | 27.5% |  | 8.2 µM [rising, partial curve, poor fit]
Cc1ccc(C2=CSC3=NS(=O)(=O)CCN23)cc1 | -18.1% |  | 6.51 µM [falling, partial curve]
COc1ccc(Cc2n[nH]c(=S)n2NC(=O)Nc2ccc(Cl)c(Cl)c2)cc1 | -30.5% | 29.1 µM [falling, single point] | 
O=C(O)c1ccc(N/N=C/c2cn(-c3ccccc3)nc2-c2cccs2)cc1 |  |  | 0.731 µM [rising, single point]
C=CCSc1n[nH]c(-c2ccc(OCCCC)cc2)n1 |  |  | 0.146 µM [falling, full curve]
CCN(CC)CCOC(=O)c1ccc(NC(=O)CNC(=O)C2CCCCC2)cc1 | 77.9% | 4.11 µM [rising, full curve] | 13 µM [rising, partial curve]
